Laboratory results: patent publication US12448376B2, “Phenothiazine ferroptosis inhibitor, preparation method therefor and application thereof” (CHENGDU HENGHAO INNOVATIVE SCIENCE AND TECHNOLOGY CO., LTD., priority 2019, dated 2025)

Tested on: middle cerebral artery occlusion (MCAO) cerebral stroke model in rat
Test: Rat MCAO cerebral stroke model, single administration, TTC staining
Type: in vivo, SD rats
Settings: tail vein injection within 10 min of reperfusion, 24 h after reperfusion
Protocol: Through the middle cerebral artery occlusion (MCAO) cerebral stroke model (also known as cerebral ischemia model) in rat, the therapeutic effects of the compounds of the present disclosure at different doses and single administration on ischemic cerebral stroke in SD rats were studied. […] The ischemic rats were placed at room temperature to keep their body temperature at 37° C. After 90 min, the suture was pulled out for reperfusion. […] After 24 h of reperfusion, the animals were scored by NSS to evaluate neurological function, and then the animals were dissected to remove the brain for TTC staining. By determining the size of cerebral infarction and calculating the inhibition rate, the therapeutic effects of the test compounds on ischemic cerebral stroke in rats were evaluated comprehensively. […] The percentage of infarct tissue weight in the whole brain was used as the infarct size (%), and the inhibition rate (%) of each drug treatment group was calculated based on the infarct size. The inhibition rate was calculated with the following formula: [formula] 2.

Row | SMILES | Whole brain weight (2.5 mg/kg) [g] | Whole brain weight (5 mg/kg) [g]
1 | C=C(c1ccc2c(c1)Nc1ccccc1S2)c1ccc2ncccc2c1 [Compound 14] | 1.23 ± 0.08 | 1.2 ± 0.08
2 | CCCCC1OC(=O)c2ccccc21 (stereo not drawn) [Positive drug, butylphthalide, reference compound] |  | 1.23 ± 0.08
